{"source": "PubChem BioAssay AID493014", "about": "(National Center for Advancing Translational Sciences (NCATS), 2011)", "note": "Screen size: about 340,000 compounds; about 170 (0.05%) were called active. Inconclusive results, whose numbers are uncertain, are shown with a selection of clear calls. The call rests on the fitted dose curve; in most records, active means well fitted inhibition curve with a large enough effect in the signal ratio, with a control signal flat (not every such curve was filed as active); inconclusive means small, poorly fitted or top-dose-only effect, or effect the other way, or a change in a side signal; inactive means flat fitted curve, though single readings scatter; the % refers to the signal ratio. Potencies beside an inconclusive call are fits to weak or partial responses and may not hold up. Potency means the concentration at half of the fitted maximal effect.", "data": [{"assay": "qHTS Assay to Find Inhibitors of Chronic Active B-Cell Receptor Signaling;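 on activity change, negative = inhibition: plate controls were basal doxycycline-induced cells for no effect and cells given 10 µM MG132 for full effect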", "conditions": "ABC-DLBCL IkBa-CBG/CBR reporter, luminescence ratio (green luciferase fused to IkBa over red control in TMD8 lymphoma cells), 4 h; activity change, negative = inhibition: at 46.1 µM (top of the series) unless noted", "procedure,_shortened": "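Cell line TMD8 (human ABC DLBCL), stably expressing tet-inducible CBG68-IkBa fusion and CBR; IMDM/0.5% FBS; cpd up to 46 uM; dox induction, 4 h, 37C/5% CO2; dual luminescence; green/red ratio; MG132 control.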", "values": [{"compound": "CCOC(=O)c1ccccc1NC(=O)CSc1ncc(C(=O)OCC)c(N)n1", "activity change, negative = inhibition": "inconclusive: -10.6%"}, {"compound": "Cc1ccc(C(=O)Nc2cccc(C(=O)N/N=C/c3ccc(O)cc3)c2)cc1", "Potency": "inconclusive: 12.6 µM [falling, partial curve, poor fit]"}, {"compound": "Cc1cc(OCC(=O)Nc2ccc(CN3CCOCC3)cc2)c2c(C)cc(=O)oc2c1", "activity change, negative = inhibition": "inactive"}, {"compound": "CC(C)(C)OC(=O)Nc1ncnc2c1ncn2C1OC(CO)C2OC(C)(C)OC21", "note": "(stereo not given)", "activity change, negative = inhibition": "inactive"}, {"compound": "COc1ccc2c(c1)[C@H]1[C@H](CO2)[C@H](c2ccccc2)[C@]2(C)C(=O)Nc3ccc(Br)cc3C(=O)N12", "activity change, negative = inhibition": "inconclusive: 3.07%"}, {"compound": "Nc1cccc(-c2ccc(CO)o2)c1", "Potency": "inconclusive: 12.6 µM [falling, single point]"}, {"compound": "CCOC(=O)C1CCN(C(=O)c2cccc(NC(=O)C(CC)CC)c2)CC1", "Potency": "inconclusive: 0.103 µM [rising, full curve, poor fit]"}, {"compound": "O=C1C2CCCCN2C(=O)N1CCN1CCN(c2ccc([N+](=O)[O-])cc2)CC1", "note": "(stereo not given)", "activity change, negative = inhibition": "inactive"}, {"compound": "CN1CCC(=O)N([C@H](CSc2ccc(Br)cc2)c2ccccc2)CC1", "activity change, negative = inhibition": "inconclusive: -10.5%"}, {"compound": "Cc1ccc(NC(=O)CSc2nc(N)c3cc4c(nc3n2)CCCC4)cc1", "activity change, negative = inhibition": "inconclusive: 7.4%"}, {"compound": "CCn1nnnc1SCC(=O)N1CCN(c2ccccc2)CC1", "activity change, negative = inhibition": "inconclusive: 8.62%"}, {"compound": "Clc1cccc(-n2ncc3c(NC4CCCCCC4)ncnc32)c1", "activity change, negative = inhibition": "inconclusive: 1.35%"}, {"compound": "CCc1ccc(/C=C2/C(=O)NC(=O)N2C(C)=O)cc1", "activity change, negative = inhibition": "inconclusive: 5.11%"}, {"compound": "O=C(NCc1ccco1)c1ccc(COc2cccc3ccccc23)cc1", "Potency": "inconclusive: 7.31 µM [falling, partial curve]"}, {"compound": "Cc1ccc(C)c(OCc2n[nH]c(=S)o2)c1", "activity change, negative = inhibition": "inconclusive: 8.68%"}, {"compound": "CCN(C(=O)c1ccco1)c1nnc(-c2cccnc2)s1", "activity change, negative = inhibition": "inconclusive: 0.341%"}, {"compound": "Cc1[nH]n(-c2ccccc2)c(=O)c1C=Nc1ccc(S(=O)(=O)Nc2nccs2)cc1", "Potency": "inconclusive: 17.8 µM [rising, partial curve, poor fit]"}, {"compound": "Cc1oc2c(c(C)cc3oc(=O)c(CC(=O)N[C@@H](CCCNC(N)=O)C(=O)O)c(C)c32)c1C", "activity change, negative = inhibition": "inconclusive: -3.55%"}, {"compound": "C=CCn1c(=O)c2c(nc3n2CC(C)CN3c2cccc(OC)c2)n(C)c1=O", "note": "(stereo not given)", "Potency": "inconclusive: 5.8 µM [rising, full curve, poor fit]"}, {"compound": "O=C(NCc1ccccc1)c1cccc(OCC(=O)N2CCN(C(=O)c3ccco3)CC2)c1", "Potency": "inconclusive: 10 µM [falling, partial curve]"}, {"compound": "COc1ccccc1OCc1ccc(C(=O)OCC2CCCO2)o1", "note": "(stereo not given)", "activity change, negative = inhibition": "inconclusive: -14.4%"}, {"compound": "Cc1ccc(CN2C(=O)c3ccccc3NC2c2cc(Br)ccc2O)cc1", "note": "(stereo not given)", "activity change, negative = inhibition": "inconclusive: -2.73%"}, {"compound": "Cc1ccc(CN2CCN(c3cccc4[nH]ccc34)CC2)cc1", "Potency": "inconclusive: 5.01 µM [falling, full curve, poor fit]"}, {"compound": "COC(CNC(=O)c1cc(S(=O)(=O)N2CCc3ccccc32)ccc1F)OC", "activity change, negative = inhibition": "inconclusive: 0.399%"}, {"compound": "Cc1noc(C)c1COc1ccc(C(=O)OCC(=O)NCc2ccccc2Cl)cc1", "activity change, negative = inhibition": "inconclusive: -0.823%"}, {"compound": "CC(=O)N1C(=O)C(=C2C=C(C)OC(C)=C2)c2ccccc21", "activity change, negative = inhibition": "inactive"}, {"compound": "CC(C)(C)OC(=O)N[C@H](C(=O)OC(C)(C)C)c1ccc(Br)cc1", "activity change, negative = inhibition": "inconclusive: 0.796%"}, {"compound": "CC(C)Nc1ccc(C(CC(N)=O)NC(=O)c2ccccc2)cc1[N+](=O)[O-]", "note": "(stereo not given)", "Potency": "inconclusive: 20 µM [falling, single point]"}, {"compound": "COc1ccc(N=Cc2oc3ccc4ccccc4c3c2O)cc1", "Potency": "inconclusive: 1.78 µM [falling, partial curve]"}, {"compound": "O=C(Nc1ccc(F)cc1)c1ccc(S(=O)(=O)NCc2cccnc2)cc1", "Potency": "inconclusive: 3.55 µM [falling, single point]"}, {"compound": "Cc1cccc([N+](=O)[O-])c1NC(=O)COC(=O)C1CCCO1", "note": "(stereo not given)", "activity change, negative = inhibition": "inconclusive: 2.71%"}, {"compound": "O=C(c1ccc(S(=O)(=O)N2CCOCC2)cc1)N1CCN=C1SCc1cccnc1", "activity change, negative = inhibition": "inconclusive: -16.3%"}, {"compound": "COc1ccc(-n2c(=S)[nH]c3cc(C(=O)NCc4ccc(F)cc4)ccc3c2=O)c(OC)c1", "activity change, negative = inhibition": "inactive"}, {"compound": "O=C(Cc1c(F)cccc1Cl)Nc1ccccc1-c1ccccc1", "Potency": "inconclusive: 35.5 µM [rising, partial curve, poor fit]"}, {"compound": "COc1ccc(CCN(C)CCCC(C#N)(c2cc(OC)c(OC)c(OC)c2)C(C)C)cc1OC", "note": "(stereo not given)", "activity change, negative = inhibition": "inconclusive: 2.7%"}, {"compound": "O=C(NCCSCc1ccccc1)c1ccc(C2SCC(=O)N2Cc2ccccc2)cc1", "note": "(stereo not given)", "activity change, negative = inhibition": "inconclusive: -10.4%"}, {"compound": "CCN(CC)CC(O)COc1ccc2c(c1)c(C(C)=O)c(C)n2-c1ccccc1", "note": "(stereo not given)", "activity change, negative = inhibition": "inconclusive: 9.84%"}, {"compound": "Cc1nc(NCCOc2ccccc2)sc1C(=O)Nc1ccccc1", "Potency": "inconclusive: 22.4 µM [falling, partial curve, poor fit]"}, {"compound": "Cc1ccc2[nH]c3c(c2c1)CCN(C)C3", "activity change, negative = inhibition": "inactive"}, {"compound": "COc1ccccc1Nc1nc(N)nc(-c2cc3ccccc3o2)n1", "activity change, negative = inhibition": "inconclusive: -1.1%"}, {"compound": "O=[N+]([O-])c1ccc(-[n+]2ccc3ccccc3c2)c([N+](=O)[O-])c1", "activity change, negative = inhibition": "inconclusive: 22.1%"}, {"compound": "O=C(/C=C/c1ccco1)NC(=S)Nc1ccc(Cl)cn1", "Potency": "inconclusive: 29.1 µM [falling, single point]"}, {"compound": "Cc1ccc(C(=O)N/N=C/c2ccc(-c3cccc(Cl)c3)o2)cn1", "activity change, negative = inhibition": "inconclusive: 6.36%"}, {"compound": "Cc1ccc(C)c(N2CCN(C(=O)c3ccc(Cn4c(=S)[nH]c5ccc(N6CCOCC6)cc5c4=O)cc3)CC2)c1", "activity change, negative = inhibition": "inactive"}, {"compound": "Cc1ccc(Nc2cnn(C34CC5CC(CC(CC(=O)O)(C5)C3)C4)c(=O)c2Cl)cc1", "Potency": "inconclusive: 6.51 µM [rising, single point]"}, {"compound": "CNC(=O)NC(=O)C(C)OC(=O)c1c(C)noc1C", "note": "(stereo not given)", "activity change, negative = inhibition": "inconclusive: -15.9%"}, {"compound": "N=c1c2c(-c3ccccc3)c(-c3ccccc3)n(Cc3ccccc3)c2ncn1CCO", "Potency": "inconclusive: 12.6 µM [falling, partial curve, poor fit]"}, {"compound": "O=C(Nc1ccccc1)C(=O)Nc1cccnc1", "Potency": "inconclusive: 5.01 µM [rising, full curve, poor fit]"}, {"compound": "NS(=O)(=O)c1cccc(NC(=O)c2cc3ccccc3o2)c1", "Potency": "inconclusive: 28.2 µM [falling, single point]"}, {"compound": "O=[N+]([O-])c1cccc(/C=C/c2ccc3cccc(O)c3n2)c1", "Potency": "inconclusive: 25.1 µM [falling, single point]"}, {"compound": "COc1ccc(S(=O)(=O)N2CCCCCC2)cc1N", "activity change, negative = inhibition": "inactive"}, {"compound": "Cc1ccccc1C(=O)N1CCN(c2ccc(NC(=O)CSc3ccc(Cl)cc3)cc2)CC1", "activity change, negative = inhibition": "inconclusive: 13.3%"}, {"compound": "O=C1C=C(NCc2ccccc2)c2ccccc2C1=O", "Potency": "inconclusive: 35.5 µM [falling, single point]"}, {"compound": "Cc1ccc(CN2C(=O)CCC2C(=O)NCCN2CCN(c3cccc(Cl)c3)CC2)cc1", "note": "(stereo not given)", "Potency": "inconclusive: 20 µM [falling, partial curve, poor fit]"}, {"compound": "CN(C)NC(=S)Nc1ccc2nc(-c3ccccn3)c(-c3ccccn3)nc2c1", "activity change, negative = inhibition": "inactive"}, {"compound": "OCCCCCN=c1cc(-c2ccccc2)oc2ccc(Cl)cc12", "activity change, negative = inhibition": "inconclusive: 7.92%"}, {"compound": "O=C(CSc1nnc(N2CCCC2)n1-c1ccccc1Cl)N1CCN(c2ccccn2)CC1", "activity change, negative = inhibition": "inconclusive: 9.18%"}, {"compound": "Cc1ccccc1C(=O)Nc1ccc(N2CCOCC2)nc1", "Potency": "inconclusive: 25.1 µM [falling, partial curve]"}, {"compound": "COc1ccc(NS(=O)(=O)c2ccc3c(c2)[C@H]2C=CC[C@H]2[C@@H](c2ccc(C(=O)O)cc2)N3)cc1", "activity change, negative = inhibition": "inactive"}, {"compound": "COc1cc(/C=C/C(=O)O)cc(Br)c1O", "Potency": "inconclusive: 35.5 µM [falling, single point]"}, {"compound": "CCOc1ccc2nc(Cl)c(CN(C(=O)c3cnccn3)C3CCCC3)cc2c1", "Potency": "inconclusive: 5.01 µM [falling, partial curve, poor fit]"}, {"compound": "CCCS(=O)(=O)c1c(S(=O)(=O)CCC)c2cc(-c3ccncc3)ccn2c1C(=O)OC", "Potency": "inconclusive: 11.2 µM [falling, partial curve, poor fit]"}, {"compound": "O=C(c1nn2c(C(F)(F)F)cc(-c3cccs3)nc2c1Br)N1CCCc2ccccc21", "activity change, negative = inhibition": "inconclusive: 18.8%"}, {"compound": "COc1cc2c(C(=O)N3CCN(c4cccc(Cl)c4)CC3)cn(CC(C)C)c(=O)c2cc1OC", "activity change, negative = inhibition": "inconclusive: 19.1%"}, {"compound": "CCC(=O)Oc1ccc2c(c1)O/C(=C\\c1ccco1)C2=O", "activity change, negative = inhibition": "inactive"}, {"compound": "CSc1nsc(/C=C/Nc2ccc(O)cc2C)c1C#N", "activity change, negative = inhibition": "inconclusive: -14.6%"}, {"compound": "CCOC(=O)c1c(C)[nH]c(C(=O)N/N=C/c2ccc(Br)cc2)c1C", "Potency": "inconclusive: 0.517 µM [falling, full curve, poor fit]"}, {"compound": "CSc1cccc(NC(=O)/C=C/c2ccccc2)c1", "Potency": "inconclusive: 11.2 µM [falling, partial curve]"}, {"compound": "CCOC(=O)C1=CC[C@H]2c3c(c4ccccc4n3C)C[C@H]1N2C", "activity change, negative = inhibition": "inconclusive: -2.24%"}, {"compound": "COC(=O)Cc1ccc(NC(=O)c2cccs2)cc1", "Potency": "inconclusive: 18.4 µM [falling, partial curve]"}, {"compound": "c1csc(C(c2nnnn2C2CCCC2)N2CCOCC2)c1", "note": "(stereo not given)", "activity change, negative = inhibition": "inconclusive: 5.59%"}, {"compound": "CCCCC(=O)NC(Nc1sc2c(c1C(N)=O)CCCC2)(C(=O)OCC)C(F)(F)F", "note": "(stereo not given)", "activity change, negative = inhibition": "inactive"}, {"compound": "COCCNS(=O)(=O)c1cc2[nH]c3c(c2cc1C)C(=O)CC(C)(C)C3", "activity change, negative = inhibition": "inconclusive: -1.4%"}, {"compound": "S=C(Nc1ccc(Nc2ccccc2)cc1)NC1CCCCCC1", "activity change, negative = inhibition": "inactive"}, {"compound": "COc1ccc(C)cc1-n1c(SCC(=O)Nc2cccc(C(=O)O)c2)nc2ccccc2c1=O", "activity change, negative = inhibition": "inconclusive: 18.4%"}]}]}
